Reference: paper PMC9841631
Results are given in words; binding and its absence hold for the method and conditions named. In cells and extracts the contact can be indirect. Some entries that bind do so weakly or less than the wild type.

Sequences of proteins named here, by UniProt entry; tags and fusion partners are left off.
UniProt P20152: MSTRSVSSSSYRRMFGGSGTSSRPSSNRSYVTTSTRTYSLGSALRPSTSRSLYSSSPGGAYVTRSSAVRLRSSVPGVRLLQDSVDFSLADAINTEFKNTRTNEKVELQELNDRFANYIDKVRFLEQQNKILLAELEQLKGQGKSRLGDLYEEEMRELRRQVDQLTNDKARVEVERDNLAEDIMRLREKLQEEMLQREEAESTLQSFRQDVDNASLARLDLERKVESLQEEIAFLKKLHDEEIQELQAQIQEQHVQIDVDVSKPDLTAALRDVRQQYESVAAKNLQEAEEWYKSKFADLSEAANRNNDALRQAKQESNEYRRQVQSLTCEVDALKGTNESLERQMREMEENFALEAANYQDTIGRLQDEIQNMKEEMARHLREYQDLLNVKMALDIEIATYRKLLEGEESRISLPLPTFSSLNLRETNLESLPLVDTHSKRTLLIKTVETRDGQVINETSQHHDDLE

Biological target: vimentin (mouse (endogenous in NIH3T3 and SVEC4-10)) (UniProt P20152)
Test: co-IP; endogenous proteins of NIH3T3 lysate; Co-IP buffer (Tris-HCl 50mM, pH7.4, MgCl2 10mM, NaCl 150mM, TritonX-100 0.5%); anti-MXRA7 (SZ181) or anti-vimentin antibody, protein A/G agarose, 4°C; western blot

binding: binds
B1: MXRA7 (endogenous) (protein, UniProt Q9CZH7 1-178)
chain: MESPVELLAALPALVTALALLLAWLLLRRGAARVPAPESTASDEAPGAPAPPEPPESCAPEPAPEGPSQSERVAEPEESEAEEPAAEGRQDEDSDSEMGPPTEEPEEEDGAAFSFKYSPGQLRGSQYKKMMTKEELEEEHRVQKEQLAAIFKLMKDNKDTFGEMSDGDMQEQLRLYDM
